Legend:
[1] = Drug toxicity test: blood biochemistry in nude mice; assay type: in vivo; details: serum of nude mice
Description: Blood samples from each mouse were kept at room temperature for 3 h and centrifuged at 8000 rpm for 15 min to produce serum. The samples were then placed on the blood routine detector for biochemical analysis.

PC3 cells = assay: CCK-8 cell viability assay, PC3; assay type: cell-based; details: Homo sapiens, PC-3, Figure 2B and text
Description: Human cancer cell lines (PC3, DU145, A549, H1299, MDA-MB-231, HepG2, PANC-1, MIA PaCa-2, HT-29, HCT116, and HeLa) were obtained from the Cell Resource Center, Peking Union Medical College (National Infrastructure of Cell Line Resource, NSTI). These cell lines were cultured according to NSTI culture guidelines and cultured in RPMI 1640 medium (Biological Industries, Israel) supplemented with 10% heat-inactivated fetal bovine serum (FBS; BI; Israel), penicillin/streptomycin (P/S; 100 IU/ml; Gibco, 10378016) in an incubator at 37 °C and 5% CO2.
Cell cytotoxicity assays were performed in 96-well plates (NEST) to determine the growth kinetics of SeSA-DCA-treated cells using CCK-8 reagent (Shandong Sparkjade Biotechnology Co., Ltd., CT0001-B). Cells (5000 cells/well) were treated with DMSO or different drugs. Each treatment was performed in five replicates. To assess cell growth, 10 μL of CCK-8 reagent was introduced to every well and allowed to incubate for 4 h. Following that, the absorbance value for each well was measured at 450 nm. Every experiment was duplicated no less than thrice.

Structure (SMILES): O=C(CCCCCCC(=O)Nc1ccccc1)NO [SAHA, suberoylanilide hydroxamic acid]
- A/G [1]: 0.4 ± 0.05
- IC50 (PC3 cells): > 1800 nM

Source: publication PMC11209715, “A novel selenium analog of HDACi-based twin drug induces apoptosis and cell cycle arrest via CDC25A to improve prostate cancer therapy” (Theranostics, 2024)
